No constants are given. Whether binding was seen depends on the method and setting. In cells and extracts the contact can be indirect. Here binding means that the protein was enriched with, or labelled near, the bait; the list need not be complete. For some of these results: A no says only that the protein was not detected with the bait. For some of these results: Where a sequence is shown, tags or fusion partners need not be part of it.

Protein sequences, listed by entry. Tags and fused reporters are not part of them. Lines headed by an entry give the natural chain unless they say otherwise; changes in a name come on top.
UniProt Q72DT2: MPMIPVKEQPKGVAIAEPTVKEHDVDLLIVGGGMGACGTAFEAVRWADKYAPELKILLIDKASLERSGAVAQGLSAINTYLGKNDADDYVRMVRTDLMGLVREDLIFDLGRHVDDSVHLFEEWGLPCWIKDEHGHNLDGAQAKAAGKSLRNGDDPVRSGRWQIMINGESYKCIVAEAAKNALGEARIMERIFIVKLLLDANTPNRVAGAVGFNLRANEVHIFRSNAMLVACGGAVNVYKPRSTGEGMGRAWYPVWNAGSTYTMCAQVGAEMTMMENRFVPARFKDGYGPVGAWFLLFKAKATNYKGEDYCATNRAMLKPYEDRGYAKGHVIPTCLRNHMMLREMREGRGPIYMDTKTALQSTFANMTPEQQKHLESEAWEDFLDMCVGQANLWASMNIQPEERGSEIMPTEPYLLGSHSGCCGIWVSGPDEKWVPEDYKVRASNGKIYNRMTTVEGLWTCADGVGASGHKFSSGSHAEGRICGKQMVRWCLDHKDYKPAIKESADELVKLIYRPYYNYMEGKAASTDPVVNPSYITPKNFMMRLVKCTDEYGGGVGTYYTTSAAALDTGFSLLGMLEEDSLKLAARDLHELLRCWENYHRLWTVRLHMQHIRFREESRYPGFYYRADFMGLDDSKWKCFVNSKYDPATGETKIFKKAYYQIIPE
UniProt Q726B7: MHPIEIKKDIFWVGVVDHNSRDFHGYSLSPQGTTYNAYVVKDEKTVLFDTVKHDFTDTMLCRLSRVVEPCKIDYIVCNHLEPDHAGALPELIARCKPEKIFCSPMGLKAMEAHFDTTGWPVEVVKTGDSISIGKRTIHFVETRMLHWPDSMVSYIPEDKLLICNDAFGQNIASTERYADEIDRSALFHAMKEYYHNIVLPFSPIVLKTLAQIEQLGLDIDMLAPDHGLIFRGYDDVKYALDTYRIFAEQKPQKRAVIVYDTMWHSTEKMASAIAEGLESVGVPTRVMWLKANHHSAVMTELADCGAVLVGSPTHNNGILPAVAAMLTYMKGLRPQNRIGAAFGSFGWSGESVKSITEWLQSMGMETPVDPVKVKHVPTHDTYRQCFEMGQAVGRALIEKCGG
UniProt Q729Q8: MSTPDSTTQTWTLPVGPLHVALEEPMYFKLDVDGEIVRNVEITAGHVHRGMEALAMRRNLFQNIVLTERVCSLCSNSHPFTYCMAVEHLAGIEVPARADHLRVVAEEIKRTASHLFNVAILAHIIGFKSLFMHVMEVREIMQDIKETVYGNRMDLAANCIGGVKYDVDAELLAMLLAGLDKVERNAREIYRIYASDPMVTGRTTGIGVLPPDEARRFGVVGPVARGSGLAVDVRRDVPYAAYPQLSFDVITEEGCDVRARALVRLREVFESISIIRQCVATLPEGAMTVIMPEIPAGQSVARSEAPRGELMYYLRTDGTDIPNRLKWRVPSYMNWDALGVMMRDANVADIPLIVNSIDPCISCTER
UniProt Q72DW8: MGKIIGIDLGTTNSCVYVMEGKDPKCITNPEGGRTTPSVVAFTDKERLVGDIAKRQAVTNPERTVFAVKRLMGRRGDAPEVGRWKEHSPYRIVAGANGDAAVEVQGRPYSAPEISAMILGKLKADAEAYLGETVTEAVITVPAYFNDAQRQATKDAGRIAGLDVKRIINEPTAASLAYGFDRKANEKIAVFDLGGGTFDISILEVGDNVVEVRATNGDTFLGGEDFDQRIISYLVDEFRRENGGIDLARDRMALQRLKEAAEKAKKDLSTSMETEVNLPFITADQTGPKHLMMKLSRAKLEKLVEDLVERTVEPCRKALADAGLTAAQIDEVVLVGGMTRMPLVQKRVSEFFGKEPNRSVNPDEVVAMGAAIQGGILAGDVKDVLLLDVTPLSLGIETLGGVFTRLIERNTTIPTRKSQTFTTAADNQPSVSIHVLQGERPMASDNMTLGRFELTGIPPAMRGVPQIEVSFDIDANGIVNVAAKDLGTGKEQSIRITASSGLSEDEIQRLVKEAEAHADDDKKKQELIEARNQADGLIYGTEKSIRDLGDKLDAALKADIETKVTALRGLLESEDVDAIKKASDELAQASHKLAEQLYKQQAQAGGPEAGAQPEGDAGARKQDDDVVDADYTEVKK

Assay in all cases: affinity purification with mass spectrometry; chromosomally C-terminally Strep-tag II-tagged bait in D. vulgaris JW801 grown anaerobically in LS4D to late log phase; soluble lysate (60~70 mg protein) on a 1-ml Strep-Tactin Sepharose column, gravity flow, 4°C, Buffer W (100 mM Tris-HCl, 150 mM NaCl, 1 mM EDTA, pH 8), eluted with desthiobiotin; tryptic digest, LC-MS/MS; three biological replicates; untagged JW801 as no-bait control

The target in experiment [1] is Strep-tagged ApsA (DVU0847) (Desulfovibrio vulgaris Hildenborough (strain JW801)) (UniProt Q72DT2).
For experiment [2], the target named is Strep-tagged Ftn (Desulfovibrio vulgaris Hildenborough (strain JW801)).
Experiment [3] deals with Strep-tagged Rubredoxin-oxygen oxidoreductase, Roo (DVU3185) (Desulfovibrio vulgaris Hildenborough (strain JW801)) (UniProt Q726B7).
In experiment [4] the target is Strep-tagged carbon monoxide-induced hydrogenase CooH (DVU2291) (Desulfovibrio vulgaris Hildenborough (strain JW801)) (UniProt Q729Q8).
For experiment [5], the target named is Strep-tagged DnaK (DVU0811) (Desulfovibrio vulgaris Hildenborough (strain JW801)) (UniProt Q72DW8).
The target of experiment [6] is T1, Strep-tagged HslV (DVU1577) (Desulfovibrio vulgaris Hildenborough (strain JW801)) (UniProt Q72BQ7).
T1 sequence: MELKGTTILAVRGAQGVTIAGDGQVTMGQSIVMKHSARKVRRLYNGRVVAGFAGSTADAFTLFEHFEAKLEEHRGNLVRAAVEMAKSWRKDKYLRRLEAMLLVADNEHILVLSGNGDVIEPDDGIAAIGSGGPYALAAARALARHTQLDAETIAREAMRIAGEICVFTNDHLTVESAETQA

B1: S-adenosylmethionine synthetase (MetK, DVU2449) (enzyme, UniProt Q729A3 1-391)
chain: MIPSKGKYYFTSESVTEGHPDKVADQISDAVLDVLLAQDPNSRVACETLVTTGMAVIAGEITTRGYADLPHVVRETIRNIGYNSSEMGFDWQTCAVISSIDKQSADIAQGVDRATNEDQGAGDQGMMFGFACDETATLMPAPIYWAHQLSQRLTEVRKDGTVDIFRPDGKTQVSFEYVDGKPVRINNVVVSTQHKDSASQADIIDAVKTHVIRPILEPSGFFDEKACDIFINTTGRFVIGGPMGDCGLTGRKIIQDTYGGMGHHGGGAFSGKDASKVDRSGAYMARYIAKNVVASGLAPKCEVQIAYCIGVAEPVSVLVSSQGTASVPDEVLTRAVREVFDLRPFHITRRLDLLRPIYGKTSCYGHFGRELPEFTWEHTDAAADLRTAAKV
B1: the binding result in experiment [1] is “binds”.

B2: ribosomal protein L7/L12 (DVU2927) (protein, UniProt Q727C8 1-127)
chain: MSITKEQVVEFIGNMTVLELSEFIKELEEKFGVSAAAPMAAMAVAAPAGDAAPAEEEKTEFDIILKSAGANKIGVIKVVRALTGLGLKEAKDKVDGAPSTLKEAASKEEAEEAKKQLVEAGAEVEIK
With B2, the binding entry in experiment [1] is listed as “binds”.

B3: adenosylhomocysteinase (AhcY, DVU0607) (enzyme, UniProt Q72EH1 1-479)
chain: MTDAKRAQKLDLSLDHKVADMSLADYGRKDLQLSEREMPGLMELIRKYGGTKPLKGLKVTGSLHMTIQTAMLIRTLYELGADIRWASCNIFSTQDHAAAAIAASGMAKVFAWKGETLEDYWWCTEMALTWPDGSGPDLLVDDGGDATLFIHKGVEVENDPSLLKKAYDNKEFQIIMDRLALAYEQDPGRWQRVAAKVRGVSEETTTGVHRLYQLEQEGKLLFPAINVNDAVTKSKFDNLYGCRESLADGIKRATDVMVAGKVVVVAGYGDVGKGCAQSMRGFGARVLVTEIDPICALQAAMEGYEVTTMEEAVRTGDIFVTATGNCNVITGAHMEAMKDEAIVCNIGHFDNEIDMHYLENTEGCVCLNIKPQVDKWTLRSGRSIIVLAEGRLVNLGCATGHPSFVMSASFTNQTLAQIELATNPDLERKVYTLPKKLDEEVARLHLDRLGVKLTRLSKDQADYIGVSPEGPFKPDHYRY
As to B3, the binding result in experiment [1] was “binds”.

B4: desulfoferrodoxin (Sor/Rbo, DVU3183) (enzyme, UniProt P20418 1-126)
chain: MPNQYEIYKCIHCGNIVEVLHAGGGDLVCCGEPMKLMKEGTSDGAKEKHVPVIEKTANGYKVTVGSVAHPMEEKHWIEWIELVADGVSYKKFLKPGDAPEAEFCIKADKVVAREYCNLHGHWKAEA
For B4, the binding entry in experiment [2], in experiment [1], in experiment [3] and in experiment [4] was “binds” each time.

B5: DnaJ (DVU3243) (protein, UniProt Q725M6 1-376)
chain: MSQRDYYEVLGVARDASEDDIKRAYRKLALQYHPDRNPDDPEAEQKFKEAAEAYDVLRDGEKRARYDRFGHAGVGNGGGFGQGFSSNEDIFAHFSDIFGDLFGFAGAAGGRSRGPRPQAGSDLRYNLTISFRQAAKGDEVTLRLPKSVPCDECGGSGAAPGTRPETCRHCGGAGQIRQSQGFFQIAMPCPVCRGEGTVITSPCPKCKGSGQTQQVKELSVRIPAGVDTGNRLRLRGEGEPGIHGGPAGDLYVVISVEDDKTFRRQGQDLVVTREISFVQASLGDRIDVPTLDDDITLDIPAGTQSGEVFRLVDKGLPYLGHGHTGDLLVEIRVVTPTRLTKKQEELLREFALLDEEKPLEKVKKMARKIGKAMGMD
Consider B5, for which, in experiment [5], the binding result is “binds”.

B6: carbon monoxide dehydrogenase, CooS (DVU2098) (enzyme, UniProt Q72A99 1-629)
chain: MSSSKTIRSRSIWDDAHAMLEKAKAEGISTVWDRAAEQTPACKFCELGTTCRNCIMGPCRIANRKDGKMRLGVCGADADVIVARNFGRFIAGGAAGHSDHGRDLIETLEAVAEGKAPGYTIRDVAKLRRIAAELGVADAATRPAHDVAADLVTICYNDFGSRRNALAFLARAPQVRRDLWQRLGMTPRGVDREIAEMMHRTHMGCDNDHTSLLVHAARTALADGWGGSMIGTELSDILFGTPRPRQSTVNLGVLRKDAVNILVHGHNPVVSEMILAATREPAVRQAAQDAGAADINVAGLCCTGNELLMRQGIPMAGNHLMTELAIVTGAADAIVADYQCIMPSLVQIAACYHTRFVTTSPKGRFTGATHVEVHPHNAQERCREIVMLAIDAYTRRDPARVDIPSQPVSIMSGFSNEAILEALGGTPKPLIDAVVAGQIRGFVGIVGCNNPKIRQDSANVTLTRELIRRDIMVLATGCVTTAAGKAGLLVPEAASKAGEGLAAVCRSLGVPPVLHMGSCVDNSRILQLCALLATTLGVDISDLPVGASSPEWYSEKAAAIAMYAVASGIPTHLGLPPNILGSENVTAMALHGLQDVVGAAFMVEPDPVKAADMLEAHIVARRARLGLTS
B6: in experiment [4], the binding entry is listed as “no binding”.

B7: HslU (DVU1467) (protein, UniProt Q72C17 1-441)
chain: MSTLTPREIVSELDRFVVGQEKAKRMVAVAMRNRWRRQRLEPSLRDEVAPKNIIMMGPTGVGKTEIARRLARLCGAPFIKVEATKYTEVGYVGRDVESMVRDLMEIGVSLIRDEEATRVRARAEAAAEERLLDLLLPQSPADGGETRQSTRDKLRGLWRQGHLDDREVDMEVEESTKGPQMDIFAMPGMESMGNQFRDLMGKAFPARRKMRKMKLREAWNLLVDEEASRLLDQDKVVDIARERVEQTGIIFIDELDKVASGEGTHRTTDISREGVQRDLLPIVEGSVVNTKYGMVRTDHILFIAAGAFHFSKPSDLIPELQGRFPLRVELDPLGRDEFYRILTEPHNALTRQYAALLATEGVTVSFTDDGLREIAAFAEEVNEETENIGARRLYTMMERILADISFDAPDRPGEHVTVDAAYVRTHLEDVRVDKDLSRYIL
As to B7, in experiment [6], the binding result is “no binding”.

B8: DsrC (DVU2776) (protein, UniProt P45573 1-105)
chain: MAEVTYKGKSFEVDEDGFLLRFDDWCPEWVEYVKESEGISDISPDHQKIIDFLQDYYKKNGIAPMVRILSKNTGFKLKEVYELFPSGPGKGACKMAGLPKPTGCV
Consider B8, for which the binding entry in experiment [1], in experiment [3] and in experiment [4] was “binds” in each case.

(Values after article PMC3125180.)
